# In the supplement of paper PMC8728848:
# The list shows a part of the results.
# B1: AT5G17240(42) (Arabidopsis thaliana), Q6NQJ8 (protein)
# chain: MDLEHQTMETFLRWAAEIGISDSIDSSRFRDSCLGHSLSVSDFPDAGGRGLGAARELKKGELVLKVPRKALMTTESIIAKDLKLSDAVNLHNSLSSTQILSVCLLYEMSKEKKSFWYPYLFHIPRDYDLLATFGNFEKQALQVEDAVWATEKATAKCQSEWKEAGSLMKELELKPKFRSFQAWLWASATISSRTLHVPWDSAGCLCPVGDLFNYDAPGDYSNTPQGPESANNVEEAGLVVETHSERLTDGGFEEDVNAYCLYARRNYQLGEQVLLCYGTYTNLELLEHYGFMLEENSNDKVFIPLETSLFSLASSWPKDSLYIHQDGKLSFALISTLRLWLIPQSQRDKSVMRLVYAGSQISVKNEILVMKWMSEKCGSVLRDLPTSVTEDTVLLHNIDKLQDPELRLEQKETEAFGSEVRAFLDANCLWDVTVLSGKPIEFSRKTSRMLSKWRWSVQWRLSYKRTLADCISYCNEKMNNLLGTQDRLRDL
# Key:
# Assay in all cases: glycan array binding signal (z-score within array); higher = stronger binding
# Conditions in all cases: glycan notation: IUPAC condensed, linker removed
# [1] = target: Neu5Ac(a2-3)Gal(b1-3)GlcNAc6S
# How it was run: (§1)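 The Consortium for Functional Glycomics database supplied 3228 glycan arrays, of which those lacking an available protein sequence were dropped. The binding signal, a within-array Z-score, was averaged across arrays of the same protein sequence and across linkers. Negative scores can be read as non-binding.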
# [2] = target: Neu5Ac(a2-3)Gal(b1-3)[Fuc(a1-4)]GlcNAc
# How it was run: as §1
# [3] = target: Neu5Ac(a2-3)Gal(b1-3)[Fuc(a1-4)]GlcNAc(b1-3)Gal(b1-3)[Fuc(a1-4)]GlcNAc
# How it was run: as §1
# [4] = target: Neu5Ac(a2-3)Gal(b1-3)[Fuc(a1-4)]GlcNAc(b1-3)Gal(b1-4)[Fuc(a1-3)]GlcNAc
# How it was run: as §1
# [5] = target: Neu5Ac(a2-3)Gal(b1-3)[GlcNAc(b1-6)]GalNAc
# How it was run: as §1
# [6] = target: Neu5Ac(a2-3)Gal(b1-3)[Neu5Ac(a2-6)]GalNAc
# How it was run: as §1
# [7] = target: Neu5Ac(a2-3)Gal(b1-3)[Neu5Ac(a2-6)]GlcNAc(b1-3)[Fuc(a1-3)[Gal(b1-4)]GlcNAc(b1-6)]Gal(b1-4)Glc
# How it was run: as §1
# [8] = target: Neu5Ac(a2-3)Gal(b1-3)]Neu5Ac(a2-3)Gal(b1-4)]GlcNAc
# How it was run: as §1
# [9] = target: Neu5Ac(a2-3)Gal(b1-4)Glc
# How it was run: as §1
# [10] = target: Neu5Ac(a2-3)Gal(b1-4)GlcNAc
# How it was run: as §1
# [11] = target: Neu5Ac(a2-3)Gal(b1-4)GlcNAc(b1-2)Man
# How it was run: as §1
# [12] = target: Neu5Ac(a2-3)Gal(b1-4)GlcNAc(b1-2)Man(a1-3)[GlcNAc(b1-4)][Neu5Ac(a2-3)Gal(b1-4)GlcNAc(b1-2)Man(a1-6)]Man(b1-4)GlcNAc(b1-4)GlcNAc
# How it was run: as §1
# [13] = target: Neu5Ac(a2-3)Gal(b1-4)GlcNAc(b1-2)Man(a1-3)[Neu5Ac(a2-3)Gal(b1-4)GlcNAc(b1-2)Man(a1-6)]Man(b1-4)GlcNAc(b1-4)GlcNAc
# How it was run: as §1
# [14] = target: Neu5Ac(a2-3)Gal(b1-4)GlcNAc(b1-2)Man(a1-3)[Neu5Ac(a2-3)Gal(b1-4)GlcNAc(b1-2)Man(a1-6)]Man(b1-4)GlcNAc(b1-4)[Fuc(a1-6)]GlcNAc
# How it was run: as §1
# [15] = target: Neu5Ac(a2-3)Gal(b1-4)GlcNAc(b1-2)Man(a1-3)[Neu5Ac(a2-6)Gal(b1-4)GlcNAc(b1-2)Man(a1-6)]Man(b1-4)GlcNAc(b1-4)GlcNAc
# How it was run: as §1
# [16] = target: Neu5Ac(a2-3)Gal(b1-4)GlcNAc(b1-2)[Neu5Ac(a2-3)Gal(b1-4)GlcNAc(b1-4)]Man(a1-3)[GlcNAc(b1-4)][Neu5Ac(a2-3)Gal(b1-4)GlcNAc(b1-2)[Neu5Ac(a2-3)Gal(b1-4)GlcNAc(b1-6)]Man(a1-6)]Man(b1-4)GlcNAc(b1-4)GlcNAc
# How it was run: as §1
# [17] = target: Neu5Ac(a2-3)Gal(b1-4)GlcNAc(b1-2)[Neu5Ac(a2-3)Gal(b1-4)GlcNAc(b1-4)]Man(a1-3)[GlcNAc(b1-4)][Neu5Ac(a2-3)Gal(b1-4)GlcNAc(b1-4)Man(a1-6)]Man(b1-4)GlcNAc(b1-4)GlcNAc
# How it was run: as §1
# [18] = target: Neu5Ac(a2-3)Gal(b1-4)GlcNAc(b1-2)[Neu5Ac(a2-3)Gal(b1-4)GlcNAc(b1-6)]Man(a1-6)[Neu5Ac(a2-3)Gal(b1-4)GlcNAc(b1-2)Man(a1-3)]Man(b1-4)GlcNAc(b1-4)GlcNAc
# How it was run: as §1
# [19] = target: Neu5Ac(a2-3)Gal(b1-4)GlcNAc(b1-2)[Neu5Ac(a2-3)Gal(b1-4)GlcNAc(b1-6)]Man(a1-6)[Neu5Ac(a2-3)Gal(b1-4)GlcNAc(b1-2)Man(a1-3)][GlcNAc(b1-4)]Man(b1-4)GlcNAc(b1-4)GlcNAc
# How it was run: as §1
# [20] = target: Neu5Ac(a2-3)Gal(b1-4)GlcNAc(b1-3)Gal
# How it was run: as §1
# [21] = target: Neu5Ac(a2-3)Gal(b1-4)GlcNAc(b1-3)Gal(b1-3)GlcNAc
# How it was run: as §1
# [22] = target: Neu5Ac(a2-3)Gal(b1-4)GlcNAc(b1-3)Gal(b1-4)GlcNAc
# How it was run: as §1
# [23] = target: Neu5Ac(a2-3)Gal(b1-4)GlcNAc(b1-3)Gal(b1-4)GlcNAc(b1-2)Man(a1-3)[Neu5Ac(a2-3)Gal(b1-4)GlcNAc(b1-3)Gal(b1-4)GlcNAc(b1-2)Man(a1-6)]Man(b1-4)GlcNAc(b1-4)GlcNAc
# How it was run: as §1
# [24] = target: Neu5Ac(a2-3)Gal(b1-4)GlcNAc(b1-3)Gal(b1-4)GlcNAc(b1-3)Gal(b1-4)GlcNAc
# How it was run: as §1
# [25] = target: Neu5Ac(a2-3)Gal(b1-4)GlcNAc(b1-3)Gal(b1-4)GlcNAc(b1-3)Gal(b1-4)GlcNAc(b1-2)Man(a1-3)[Neu5Ac(a2-3)Gal(b1-4)GlcNAc(b1-3)Gal(b1-4)GlcNAc(b1-3)Gal(b1-4)GlcNAc(b1-2)Man(a1-6)]GalNAc
# How it was run: as §1
# [26] = target: Neu5Ac(a2-3)Gal(b1-4)GlcNAc(b1-3)Gal(b1-4)GlcNAc(b1-3)GalNAc
# How it was run: as §1
# [27] = target: Neu5Ac(a2-3)Gal(b1-4)GlcNAc(b1-3)Gal(b1-4)GlcNAc(b1-3)[Neu5Ac(a2-3)Gal(b1-4)GlcNAc(b1-3)Gal(b1-4)GlcNAc(b1-6)]GalNAc
# How it was run: as §1
# [28] = target: Neu5Ac(a2-3)Gal(b1-4)GlcNAc(b1-3)Gal(b1-4)GlcNAc(b1-6)[Gal(b1-3)]GalNAc
# How it was run: as §1
# [29] = target: Neu5Ac(a2-3)Gal(b1-4)GlcNAc(b1-3)Gal(b1-4)[Fuc(a1-3)]GlcNAc
# How it was run: as §1
# [30] = target: Neu5Ac(a2-3)Gal(b1-4)GlcNAc(b1-3)GalNAc
# How it was run: as §1
binder,measurement,setting,value
B1,glycan array binding signal (z-score),[1],-0.439
same,glycan array binding signal (z-score),[2],-0.652
same,glycan array binding signal (z-score),[3],-0.045
same,glycan array binding signal (z-score),[4],-0.202
same,glycan array binding signal (z-score),[5],-0.699
same,glycan array binding signal (z-score),[6],-0.27
same,glycan array binding signal (z-score),[7],-0.411
same,glycan array binding signal (z-score),[8],-0.694
same,glycan array binding signal (z-score),[9],-0.147
same,glycan array binding signal (z-score),[10],-0.307
same,glycan array binding signal (z-score),[11],-0.365
same,glycan array binding signal (z-score),[12],0.141
same,glycan array binding signal (z-score),[13],-0.387
same,glycan array binding signal (z-score),[14],-0.389
same,glycan array binding signal (z-score),[15],-0.207
same,glycan array binding signal (z-score),[16],-0.496
same,glycan array binding signal (z-score),[17],0.141
same,glycan array binding signal (z-score),[18],-0.069
same,glycan array binding signal (z-score),[19],0.236
same,glycan array binding signal (z-score),[20],-0.368
same,glycan array binding signal (z-score),[21],-0.677
same,glycan array binding signal (z-score),[22],-0.958
same,glycan array binding signal (z-score),[23],-0.521
same,glycan array binding signal (z-score),[24],0.104
same,glycan array binding signal (z-score),[25],2.21
same,glycan array binding signal (z-score),[26],-0.577
same,glycan array binding signal (z-score),[27],-0.237
same,glycan array binding signal (z-score),[28],-0.614
same,glycan array binding signal (z-score),[29],0.084
same,glycan array binding signal (z-score),[30],-0.618
